Test results: publication PMC7862700
Only a part is listed here, and it is no random draw. For part of these data: At the low end of the ranking the order means little. This is one part of the list. For part of these data: Construct or isoform of the protein are uncertain.

Target: T1, ERG (UniProt P11308)
T1 sequence: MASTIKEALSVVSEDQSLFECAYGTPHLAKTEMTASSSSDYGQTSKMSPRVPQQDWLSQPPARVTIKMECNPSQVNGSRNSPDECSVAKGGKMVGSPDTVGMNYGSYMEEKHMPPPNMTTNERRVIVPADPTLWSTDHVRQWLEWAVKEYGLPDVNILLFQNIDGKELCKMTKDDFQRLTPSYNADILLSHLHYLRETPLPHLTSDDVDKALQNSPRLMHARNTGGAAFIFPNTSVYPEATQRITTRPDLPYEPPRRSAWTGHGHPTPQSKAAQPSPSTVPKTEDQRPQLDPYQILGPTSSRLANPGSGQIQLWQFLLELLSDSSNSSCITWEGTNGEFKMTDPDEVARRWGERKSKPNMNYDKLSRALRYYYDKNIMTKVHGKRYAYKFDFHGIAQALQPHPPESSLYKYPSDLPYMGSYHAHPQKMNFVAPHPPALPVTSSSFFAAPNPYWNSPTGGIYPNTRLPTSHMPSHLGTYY
Experiment: DAPPL (digital affinity profiling via proximity ligation, sequencing)
Conditions: 10 mM Tris-HCl pH 7.5, 50 mM NaCl, 1 mM DTT, 4% glycerol, room temperature, 30 min; GST-TFs on glutathione beads, 16-mer random dsDNA library, 0.1% …; high values mean tight binding; double strand, one strand shown; scale: fold enrichment (6-mer frequency, TF over GST control)

| Sequence | binding signal |
| --- | --- |
| ATTAAC | 1.21 |
| CTACTA | 1.24 |
| ACCGCC | 1.27 |
| GCACGA | 1.02 |
| CGCTGC | 1.22 |
| AAGCGG | 1.1 |
| GCTAGC | 1.22 |
| TCACGT | 1.29 |
| CAACTC | 1.28 |
| TCTCAG | 1.43 |
| TTTGCA | 1.29 |
| ACCACG | 1.06 |
| CATCGC | 1.06 |
| GCGCTT | 1.24 |
| TTGGCT | 0.97 |
| AACTAG | 1.21 |
| TCTGAA | 1.15 |
| AGCGAC | 1.23 |
| GTTTCT | 1.22 |
| TAAAGC | 0.997 |

| Sequence | binding signal |
| --- | --- |
| ATTGCA | 1.21 |
| AGCTAG | 0.981 |
| AGTGGC | 1.28 |
| TTCCAA | 1.26 |
| GTTCCC | 1.25 |
| CCCATA | 1.24 |
| CGTCCA | 0.972 |
| GCAATA | 0.984 |
| CGGTTT | 1.33 |
| TGCAAG | 0.955 |
| TGCATT | 1.24 |
| CTCCGA | 1.34 |
| CGCCTA | 1.14 |
| AAACTT | 1.24 |
| CTCGTT | 1.25 |
| TCAGCT | 1.06 |
| TAGTTC | 1.45 |
| AAAGCC | 0.922 |
| ATTACA | 1.12 |

Target: T2, ETV4 (UniProt P43268)
T2 sequence: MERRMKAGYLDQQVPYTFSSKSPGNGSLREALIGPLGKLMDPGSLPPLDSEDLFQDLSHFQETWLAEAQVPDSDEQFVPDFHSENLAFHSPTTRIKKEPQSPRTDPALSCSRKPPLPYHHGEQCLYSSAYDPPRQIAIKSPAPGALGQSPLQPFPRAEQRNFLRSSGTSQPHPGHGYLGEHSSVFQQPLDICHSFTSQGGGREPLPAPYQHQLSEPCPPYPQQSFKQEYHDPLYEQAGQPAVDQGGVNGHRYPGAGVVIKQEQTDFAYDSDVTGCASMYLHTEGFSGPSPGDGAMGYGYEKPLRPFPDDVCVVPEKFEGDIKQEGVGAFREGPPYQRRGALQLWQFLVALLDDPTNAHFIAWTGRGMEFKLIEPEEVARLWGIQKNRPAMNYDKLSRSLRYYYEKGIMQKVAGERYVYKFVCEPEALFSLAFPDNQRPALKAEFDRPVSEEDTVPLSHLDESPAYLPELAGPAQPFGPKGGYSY
Experiment: as above
Conditions: 10 mM Tris-HCl pH 7.5, 50 mM NaCl, 1 mM DTT, 4% glycerol, room temperature, 30 min; GST-TFs on glutathione beads, 16-mer random dsDNA library, 0.1% …; high values mean tight binding; double strand, one strand shown; scale: fold enrichment (6-mer frequency, TF over GST control)

| Sequence | binding signal |
| --- | --- |
| ATTAAC | 1.29 |
| CTACTA | 1.21 |
| ACCGCC | 1.25 |
| GCACGA | 1.07 |
| CGCTGC | 1.27 |
| AAGCGG | 1.11 |
| GCTAGC | 1.32 |
| TCACGT | 1.22 |
| CAACTC | 1.27 |
| TCTCAG | 1.38 |
| TTTGCA | 1.27 |
| ACCACG | 1.06 |
| CATCGC | 1.07 |
| GCGCTT | 1.4 |
| TTGGCT | 1.09 |
| AACTAG | 1.08 |
| TCTGAA | 1.25 |
| AGCGAC | 1.23 |
| GTTTCT | 1.27 |
| TAAAGC | 1.01 |

| Sequence | binding signal |
| --- | --- |
| ATTGCA | 1.13 |
| AGCTAG | 1.03 |
| AGTGGC | 1.33 |
| TTCCAA | 1.27 |
| GTTCCC | 1.28 |
| CCCATA | 1.3 |
| CGTCCA | 0.972 |
| GCAATA | 1.05 |
| CGGTTT | 1.32 |
| TGCAAG | 1.04 |
| TGCATT | 1.31 |
| CTCCGA | 1.43 |
| CGCCTA | 1.22 |
| AAACTT | 1.27 |
| CTCGTT | 1.36 |
| TCAGCT | 1.17 |
| TAGTTC | 1.46 |
| AAAGCC | 0.979 |
| ATTACA | 1.14 |
